These are yes or no findings as the source states them, for the method shown. Some binding calls cover weakened binding; strength is not graded here.
Assays:
[1] = target: 人CD47 (表面过表达人CD47的293F细胞) (human) (UniProt Q08722); test: flow cytometry on 293F cells overexpressing human CD47
[2] = target: 食蟹猴CD47-his蛋白 (ACRO biosystems, cat#CD7-C52H1, MW 15.8 kDa) (cynomolgus monkey); test: capture ELISA, antibody captured by goat anti-mouse IgG Fcγ, biotinylated cynomolgus CD47 at 60 nM

The chains behind the UniProt entries cited, without tags or fusion partners. Residues count along the entry.
UniProt Q08722, residues 19-323: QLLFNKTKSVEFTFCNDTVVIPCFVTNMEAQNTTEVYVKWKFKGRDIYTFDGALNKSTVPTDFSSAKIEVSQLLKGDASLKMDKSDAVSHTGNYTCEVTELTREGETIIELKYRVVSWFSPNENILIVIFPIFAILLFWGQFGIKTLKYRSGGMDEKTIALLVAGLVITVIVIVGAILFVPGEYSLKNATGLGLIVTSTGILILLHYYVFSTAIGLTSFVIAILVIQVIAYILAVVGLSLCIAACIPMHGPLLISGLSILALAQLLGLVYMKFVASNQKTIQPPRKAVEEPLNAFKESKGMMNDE

B1: 小鼠抗CD47单克隆抗体1D2 (antibody, V domains shown)
VH: EVQLQQSGPELVKPGASVRISCKTSGYKFTDYNIHWVKQSHGKSLEYIGYIYPYNISSAYNQKFKSKATVTVDNSSSTSYMELRSLTSEDSAVYYCARGGWRAMDYWGQGTSVTVSS
VL: AVLMTQSPLSLPVSLGDQASLSCRSSQNIVHTNGYTYLAWYLQRPGQSPKLLIYKVSNRFSGVPDRFSGSGSGTDFTLRISRVEAEDLGVYYCFQGSHVPWTFGGGTKLEIK
[1]
  binding: binds
[2]
  binding: binds

Source: CN115772221A
